Where two headings read alike, the source gives them in different places. No constants are given. Whether binding was seen depends on the method and setting. In cells and extracts the contact can be indirect. Here binding means that the protein was enriched with, or labelled near, the bait; the list need not be complete.
Key:
[1] = molecular target: T1, α-1 syntrophin (SNTA1) (human (endogenous in MCF-7)) (UniProt Q13424); assay: affinity purification with mass spectrometry
T1 sequence: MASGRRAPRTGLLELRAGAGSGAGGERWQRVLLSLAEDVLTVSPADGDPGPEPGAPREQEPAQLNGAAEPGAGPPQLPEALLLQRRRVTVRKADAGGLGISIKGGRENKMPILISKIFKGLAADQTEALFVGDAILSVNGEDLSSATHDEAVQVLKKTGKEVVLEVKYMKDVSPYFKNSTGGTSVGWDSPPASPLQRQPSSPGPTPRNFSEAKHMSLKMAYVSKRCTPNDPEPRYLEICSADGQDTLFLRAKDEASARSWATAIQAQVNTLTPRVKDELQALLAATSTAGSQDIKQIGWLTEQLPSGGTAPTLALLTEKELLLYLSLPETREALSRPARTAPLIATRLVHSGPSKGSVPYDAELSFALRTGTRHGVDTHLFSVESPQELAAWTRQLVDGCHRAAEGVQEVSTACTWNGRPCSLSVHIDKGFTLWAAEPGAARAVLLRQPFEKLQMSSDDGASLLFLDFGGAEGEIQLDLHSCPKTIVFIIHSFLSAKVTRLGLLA

[2] = molecular target: T1, α-1 syntrophin (SNTA1) (human (endogenous in MCF-7)); assay: affinity purification with mass spectrometry; remark: listed apart in the source

HSP90 ALPHA isoform I (from UniProt P07900-2 1-854)
binding [1]: binds | binding [2]: binds

From doi:10.1101/2022.03.16.484629
